Literature values in US20120251478A1, “Method for treatment of a glomerular disease comprising administration of anion exchange resin” (priority 2006, published 2012).
At least one compound was matched to its structure with a doubt left.

Tested on: apparent albuminuria
Conditions: reports, nonpatent reference 2

Cc1c(C)c2c(c(C)c1O)CCC(C)(COc1ccc(CC3SC(=O)NC3=O)cc1)O2 (stereo not shown) [troglitazone]
apparent albuminuria: not ameliorated
